Measured values taken from PubChem BioAssay AID504456 (NMMLSC, 2011).
Some of the results follow. The main result of the screen is listed elsewhere. These columns were measured beside it and carry no call.

Test: rapamycin-like growth block in BY4741 yeast – BY4741 wild type, TORC1 bypass strain, mechanism study for yeast TOR pathway GFP screen (AID 504456)
Details: S. cerevisiae BY4741 spot growth rating, 48-72 h, at 30 µM

| Structure (SMILES) | growth rating (0-3) |
| --- | --- |
| C[C@@H]1C[C@@H]([C@H](O)CC2CC(=O)NC(=O)C2)C(=O)[C@@H](C)C1 | 0 |
| C[C@H]1C[C@@H](C)C(=O)[C@@H]([C@H](O)CC2CC(=O)NC(=O)C2)C1 | 0 |
